# Measured values taken from article PMC9770967, “Native holdup (nHU) to measure binding affinities from cell extracts” (Science Advances, 2022).
# Entries after “also recorded” stand apart in the source; their conditions may differ.
# How the values were obtained:
# SNX27_PDZ [1] = assay: AP-MS control pull-down on leftover resin, SNX27_PDZ bait, total SH-SY5Y extracts; type: binding, human; settings: threshold 1 σ
# Method: Leftover beads from nHU-MS experiments were washed three times immediately after the separation of the supernatant [10 resin volume in buffer containing 50 mM tris (pH 8.5), 150 mM NaCl, 1% Triton X-100, 10× cOmplete EDTA-free protease inhibitor cocktail, 2 mM EDTA, and 1 mM TCEP]. Then, the beads were washed two times [10 resin volume buffer containing 50 mM tris (pH 8.5), 150 mM NaCl, and 1 mM TCEP]. Last, captured protein was eluted from the resin in two steps, and the eluted fractions were pooled. For each elution, the beads were incubated for 30 min with three resin volume buffer containing 20 mM tris (pH 8.5), 100 mM NaCl, 500 μM TCEP, and 8 M urea. Between each step, the beads were separated by mild centrifugation, and the supernatant was removed by gentle pipetting.
# The nHU samples were precipitated with trichloroacetic acid (TCA) 20% overnight at 4°C and centrifuged at 14,000 rpm for 10 min at 4°C. The protein pellets were washed twice with 1 ml of cold acetone and air-dried. The protein extracts were solubilized in 8 M urea, reduced with 5 mM TCEP for 30 min, and alkylated with 10 mM iodoacetamide for 30 min in the dark. Double digestion was performed at 37°C with 500 ng of endoproteinase Lys-C (Wako, Richmond, USA) for 4 hours, followed by fourfold dilution and an overnight digestion with 500 ng of trypsin (Promega, Charbonnieres les Bains, France). Peptide mixtures were then desalted on a C18 spin-column and dried on a speed vacuum.
# Samples were analyzed using an Ultimate 3000 nano-RSLC coupled in line via a nano-electrospray ionization source, with an LTQ-Orbitrap ELITE mass spectrometer (Thermo Fisher Scientific, San Jose, CA) or with the Orbitrap Exploris 480 mass spectrometer (Thermo Fisher Scientific, Bremen, Germany) equipped with a high field asymmetric ion mobility spectrometry (FAIMS) module. […]
# [2] = tested on: isolated PDZ domains (SNX27, TAX1BP3, SCRIB PDZ_1, SCRIB PDZ_2, DLG1 PDZ_1, DLG1 PDZ_2); assay: nHU-MS with six isolated PDZ domain baits / summary of nHU-MS experiments; type: binding, human; settings: Jurkat extract
# HA-tagged SNX27 = assay: Colocalization (immunostaining) in U2OS cells expressing HA-tagged SNX27 or SNX27_ΔPDZ; type: cell-based; settings: SNX27 vs SNX27_ΔPDZ, confocal, single-cell PCC, n > 20
# full-length SNX27 = assay: nHU-WB titration, full-length SNX27 bait, total Jurkat extracts; type: binding
# Method: The empty His6-AviTag-MBP-TEV vector was used to produce biotinylated MBP for control experiments. Proteins were coexpressed with BirA biotin ligase (PET21a-BirA, Addgene, no. 20857) in Escherichia coli BL21(DE3) cells. At isopropyl-β-D-thiogalactopyranoside (IPTG) induction (1 mM IPTG at 18°C overnight), 50 μM biotin was added to the media. […] Lysates were frozen at -20°C before further purification steps. Lysates were sonicated and centrifuged for clarification. Expressed proteins were captured on in-house prepacked Ni-IDA (Protino Ni-IDA Resin, Macherey-Nagel, Duren, Germany) columns and were washed with at least 10 column volumes of cold wash buffer [50 mM tris (pH 7.5), 150 mM NaCl, and 2 mM β-mercaptoethanol] before elution with 250 mM imidazole. The Ni elution was collected directly on a preequilibrated amylose column (amylose high flow resin, New England Biolabs, Ipswich, MA). […] The concentration of proteins was determined by their ultraviolet absorption at 280 nm before aliquots were snap-frozen in liquid nitrogen and stored at -80°C. […] To saturate streptavidin resin with biotinylated proteins, 50 μl of streptavidin resin (Streptavidin Sepharose High Performance, Cytiva) was mixed with biotinylated MBP or MBP-PDZ at 40 to 50 μM concentration in 20× resin volume for 60 min. […] Last, resins were washed two times (10 resin volume, holdup buffer). […]
# SNX27_PDZ [3] = assay: nHU-WB at various incubation times, SNX27_PDZ bait, Jurkat lysates; type: binding; settings: 15, 30, 120 and 240 min; 10 μM bait
substance,measurement,setting,value
ELOC: Elongin-C,BINDER_AP,SNX27_PDZ [1],DOES NOT BIND
KARS1: Lysine--tRNA ligase,BINDER_AP,SNX27_PDZ [1],DOES NOT BIND
VTN: Vitronectin,BINDER_AP,SNX27_PDZ [1],DOES NOT BIND
"Vimentin: intermediate filament-forming Vimentin, endogenous full-length prey",interaction with isolated PDZ domains,[2],"detectable interaction with four different PDZ domains, yet SNX27_PDZ was its strongest binder"
same,colocalization with SNX27,HA-tagged SNX27,not enriched in these SNX27 foci
same,affinity ranking,full-length SNX27; full-length SNX27,stronger than with SLC16A1
same,binding mechanism,full-length SNX27; titration,positive cooperative binding mechanism
same,effect of prolonged incubation time on BI,SNX27_PDZ [3],No detectable change; also recorded: did not observe significant change
